The other results are listed elsewhere or left out.

The values that follow come from the supplement of paper PMC8728848.

Assay in all cases: glycan array binding signal (z-score within array); higher = stronger binding
Common to all, as to conditions: glycan notation: IUPAC condensed, linker removed

For assay [1], the target named is Gal(b1-4)GlcNAc(b1-2)Man(a1-6)[GlcNAc(b1-2)Man(a1-3)]Man(b1-4)GlcNAc(b1-4)GlcNAc. The procedure, abridged: (§1)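 Columns mapping to the same glycan were averaged after glycan names were converted to IUPAC-condensed notation. The data come from 3228 arrays in the Consortium for Functional Glycomics database, limited to those with an available protein sequence. Binding is reported as a within-array Z-score averaged across arrays of one protein sequence and across linkers.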

Assay [2] has as its target Gal(b1-4)GlcNAc(b1-2)Man(a1-6)[Man(a1-3)]Man(b1-4)GlcNAc(b1-4)GlcNAc. The procedure, abridged: as §1
Assay [3] deals with Gal(b1-4)GlcNAc(b1-2)[Gal(b1-4)GlcNAc(b1-4)]Man(a1-3)[Gal(b1-4)GlcNAc(b1-2)Man(a1-6)]Man(b1-4)GlcNAc(b1-4)GlcNAc. The procedure, abridged:
as §1

Assay [4] has as its target Gal(b1-4)GlcNAc(b1-2)[Gal(b1-4)GlcNAc(b1-4)]Man(a1-3)[Gal(b1-4)GlcNAc(b1-2)[Gal(b1-4)GlcNAc(b1-6)]Man(a1-6)]Man(b1-4)GlcNAc(b1-4)GlcNAc. The procedure, abridged:
as §1

Assay [5] has as its target Gal(b1-4)GlcNAc(b1-2)[Gal(b1-4)GlcNAc(b1-4)]Man(a1-3)[GlcNAc(b1-4)][Gal(b1-4)GlcNAc(b1-2)Man(a1-6)]Man(b1-4)GlcNAc(b1-4)GlcNAc. Put shortly: as §1
For assay [6], the target named is Gal(b1-4)GlcNAc(b1-2)[Gal(b1-4)GlcNAc(b1-4)]Man(a1-3)[GlcNAc(b1-4)][Gal(b1-4)GlcNAc(b1-2)[Gal(b1-4)GlcNAc(b1-6)]Man(a1-6)]Man(b1-4)GlcNAc(b1-4)GlcNAc. The procedure, abridged: as §1
Assay [7] addresses Gal(b1-4)GlcNAc(b1-2)[Gal(b1-4)GlcNAc(b1-6)]Man(a1-6)[Gal(b1-4)GlcNAc(b1-2)Man(a1-3)]Man(b1-4)GlcNAc(b1-4)GlcNAc. The procedure, abridged: as §1
Assay [8] has as its target Gal(b1-4)GlcNAc(b1-2)[Gal(b1-4)GlcNAc(b1-6)]Man(a1-6)[Gal(b1-4)GlcNAc(b1-2)Man(a1-3)]Man(b1-4)GlcNAc(b1-4)[Fuc(a1-6)]GlcNAc. Put shortly:
as §1

The target in assay [9] is Gal(b1-4)GlcNAc(b1-2)[Gal(b1-4)GlcNAc(b1-6)]Man(a1-6)[GlcNAc(b1-4)][Gal(b1-4)GlcNAc(b1-2)Man(a1-3)]Man(b1-4)GlcNAc(b1-4)GlcNAc. The procedure, abridged: as §1
Assay [10] deals with Gal(b1-4)GlcNAc(b1-2)[Gal(b1-4)GlcNAc(b1-6)]Man(a1-6)[GlcNAc(b1-4)][Gal(b1-4)GlcNAc(b1-2)[Gal(b1-4)GlcNAc(b1-4)]Man(a1-3)]Man(b1-4)GlcNAc(b1-4)[Fuc(a1-6)]GlcNAc. The procedure, abridged: as §1
Assay [11] addresses Gal(b1-4)GlcNAc(b1-3)Gal(b1-3)GalNAc. Put shortly:
as §1

The target of assay [12] is Gal(b1-4)GlcNAc(b1-3)Gal(b1-3)GlcNAc. Put shortly:
as §1

For assay [13], the target named is Gal(b1-4)GlcNAc(b1-3)Gal(b1-4)Glc. The procedure, abridged: as §1
The target of assay [14] is Gal(b1-4)GlcNAc(b1-3)Gal(b1-4)GlcNAc. The procedure, abridged:
as §1

Assay [15] concerns the target Gal(b1-4)GlcNAc(b1-3)Gal(b1-4)GlcNAc(b1-2)Man(a1-3)[Gal(b1-4)GlcNAc(b1-3)Gal(b1-4)GlcNAc(b1-2)Man(a1-6)]Man(b1-4)GlcNAc(b1-4)GlcNAc. The procedure, abridged:
as §1

Assay [16] concerns the target Gal(b1-4)GlcNAc(b1-3)Gal(b1-4)GlcNAc(b1-2)Man(a1-3)[Gal(b1-4)GlcNAc(b1-3)Gal(b1-4)GlcNAc(b1-2)Man(a1-6)]Man(b1-4)GlcNAc(b1-4)[Fuc(a1-6)]GlcNAc. The procedure, abridged:
as §1

Assay [17] has as its target Gal(b1-4)GlcNAc(b1-3)Gal(b1-4)GlcNAc(b1-2)[Gal(b1-4)GlcNAc(b1-3)Gal(b1-4)GlcNAc(b1-6)]Man(a1-6)[Gal(b1-4)GlcNAc(b1-3)Gal(b1-4)GlcNAc(b1-2)Man(a1-3)]Man(b1-4)GlcNAc(b1-4)GlcNAc. Put shortly: as §1
Assay [18] addresses Gal(b1-4)GlcNAc(b1-3)Gal(b1-4)GlcNAc(b1-2)[Gal(b1-4)GlcNAc(b1-3)Gal(b1-4)GlcNAc(b1-6)]Man(a1-6)[Gal(b1-4)GlcNAc(b1-3)Gal(b1-4)GlcNAc(b1-2)Man(a1-3)]Man(b1-4)GlcNAc(b1-4)[Fuc(a1-6)]GlcNAc. The procedure, abridged:
as §1

Assay [19] has as its target Gal(b1-4)GlcNAc(b1-3)Gal(b1-4)GlcNAc(b1-3)Gal(b1-4)GlcNAc. Put shortly: as §1
The target of assay [20] is Gal(b1-4)GlcNAc(b1-3)Gal(b1-4)GlcNAc(b1-3)Gal(b1-4)GlcNAc(b1-2)Man(a1-3)[Gal(b1-4)GlcNAc(b1-3)Gal(b1-4)GlcNAc(b1-3)Gal(b1-4)GlcNAc(b1-2)Man(a1-6)]Man(b1-4)GlcNAc(b1-4)GlcNAc. Put shortly: as §1
In assay [21] the target is Gal(b1-4)GlcNAc(b1-3)Gal(b1-4)GlcNAc(b1-3)Gal(b1-4)GlcNAc(b1-2)Man(a1-3)[Gal(b1-4)GlcNAc(b1-3)Gal(b1-4)GlcNAc(b1-3)Gal(b1-4)GlcNAc(b1-2)Man(a1-6)]Man(b1-4)GlcNAc(b1-4)[Fuc(a1-6)]GlcNAc. The procedure, abridged:
as §1

Assay [22] concerns the target Gal(b1-4)GlcNAc(b1-3)Gal(b1-4)GlcNAc(b1-3)Gal(b1-4)GlcNAc(b1-2)[Gal(b1-4)GlcNAc(b1-3)Gal(b1-4)GlcNAc(b1-3)Gal(b1-4)GlcNAc(b1-6)]Man(a1-6)[Gal(b1-4)GlcNAc(b1-3)Gal(b1-4)GlcNAc(b1-3)Gal(b1-4)GlcNAc(b1-2)Man(a1-3)]Man(b1-4)GlcNAc(b1-4)[Fuc(a1-6)]GlcNAc. The procedure, abridged: as §1

B1: AT3G09350(27) (Arabidopsis thaliana), Q84J81 (protein)
chain: MAKDGPNWDGLLKWSLSHADGTRPTRQLSEEDRKWFMEAMQSQTVDVVKRMKEITLVMQTPEQVLVEHGVTPEDIQDLLDELQEHVESIDMANDLHSIGGLVPLLSFLKNSHANIRAKAADVVSTIVQNNPRSQELVMETNALESLLSNFTSDTDIHARTQALGAISSLIRHNKPGVTAFKLANGYAGLRDALASDSVRFQRKALNLLQYLLQEDDSDRSIATGLGFPRVMMHLASSDDAEIREAALRGLLELSREKNDGSSSIDKSDEKLRQLLEERIKGITLMSQEDLETVKEERQLVDLLWSICYNEPSSLREKGLVVLPGEDALPPDVASKLFEPPLRASAANRNATEKKDEPMKLLGP
Consider B1, for which the “glycan array binding signal (z-score)” value in assay [1] was 0.134; in assay [2], 0.115; in [3] it was 0.33; in [4], 0.086; in [5], 0.348; in [6], -0.3. Besides, the “glycan array binding signal (z-score)” value is -0.236 in assay [7]; -0.389 in assay [8]; -0.293 in assay [9]; 0.66 in assay [10]; 0.008 in assay [11]; -0.739 in [12]. For the same molecule, the “glycan array binding signal (z-score)” value was 0.442 in assay [13]; 0.42 in [14]; 0.418 in assay [15]; -0.388 in assay [16]; 0.522 in assay [17]; -0.221 in [18]. For the same molecule, the “glycan array binding signal (z-score)” value in [19] was -0.41; in assay [20], -0.106; in [21] it was 0.94; in assay [22], -0.634.
